Laboratory results: US20180200257A1, “METHODS FOR THE TREATMENT OF INFLAMMATORY DISORDERS” (Galapagos NV, priority 2015, published 2018)
Further values from the same series stand in other lists.

System: subjects with moderately to severely active RA who have an inadequate response to methotrexate (MTX)
Experiment: Study 2 (monotherapy) - DAS28(CRP) scores
Format: in vivo, human
Settings: 24 weeks results
Source text: Randomized, double-blind, placebo-controlled, multicenter, phase IIb dose finding study of Compound 1 (dosed as a [Compound 1:HCl:3H2O]) administered for 24 weeks as monotherapy to subjects with moderately to severely active rheumatoid arthritis who have an inadequate response to methotrexate alone
Double-blind, placebo-controlled, monotherapy study in subjects with moderately to severely active RA who have an inadequate response to methotrexate (MTX) (oral or parenteral).
280 subjects randomized to one of 3 doses of Compound 1 (dosed as a [Compound 1:HCl:3H2O]) or to placebo, given once daily (q.d.).
Twelve weeks of treatment with Compound 1 (dosed as a [Compound 1:HCl:3H2O]) at 50 mg, 100 mg, or 200 mg q.d.; or placebo. At Week 12, all subjects on placebo and the subjects on the 50 mg dose who have not achieved 20% improvement in swollen joint count (SJC66) and tender joint count (TJC68) will be assigned to 100 mg q.d. in a blinded fashion and will continue treatment until Week 24. Subjects in the other groups will maintain their randomized treatment until Week 24.
The (DAS28(CRP)) is a system developed and validated by the European League Against Rheumatism (EULAR) to measure the progress and improvement of rheumatoid arthritis and has been extensively validated (Wells et al., 2008). The DAS28(CRP) scoring includes a 28 tender and swollen joint count, CRP measurement from blood analysis, and a general health assessment on a visual analog scale (Fransen et al., 2003).
DAS28(CRP) values range from 2.0 to 10.0, and more particularly reflect the following status: • Remission: DAS28(CRP) ≤2.6 • Low Disease activity: 2.6 <DAS28(CRP) ≤3.2 • Moderate Disease Activity: 3.2 <DAS28(CRP) ≤5.1 • High Disease Activity: DAS28(CRP) >5.1
In practice, the DAS28(CRP) measurement involves the evaluation 28 different joints including in the measurement (proximal interphalangeal joints (10 joints), metacarpophalangeal joints (10), wrists (2), elbows (2), shoulders (2), and knees (2)). When looking at these joints, both the number of joints with tenderness upon touching and swelling are counted.
Secondly, C-reactive protein level is measured.
Finally, the patient makes a subjective assessment of disease activity during the preceding 7 days on a scale between 0 and 100, where 0 is “no activity” and 100 is “highest activity possible”.
The DAS28(CRP) score is then calculated as follows:
Firstly, the patient is asked to make a vertical mark on a 100 mm Visual Analog Scale (VAS) corresponding to their general health or global disease activity on a touch screen to measure the VAS value, which is used in the formula below.
Secondly, a swollen and tender joint examination is then performed on the patient. The swollen and tender joints are recorded. From this examination are obtained the total amount of swollen joints (SJC) and the total amount of tender joints (TJC), which are used in the formula below.
Thirdly, C-reactive protein (CRP) levels are measured.
Finally, the values obtained above (VAS, TJC28, SJC28, and CRP) are computed into the following Formula to obtain the DAS28(CRP) score.
DAS28(CRP)=0.56*√{square root over (TJC28)}+0.28√{square root over (SJC28)}+[…] ln(CRP+1)+0.014*VAS
The improvement (decreases) in the DAS28(CRP) scores for each patient group at weeks 1, 2, 4, 8 and 12 is shown in Table LXXXVII and Table LXXXVIII below, together with the Hommel-corrected p-value for the pairwise comparisons of each group with placebo.
The number of subjects (N) provided in each groups corresponds to the number of subjects starting the study in each group, and the DAS28 (CRP) data reported below corresponds to the responding subjects continuing for the entire 24 weeks on their initial treatment course.

## O=C(Nc1nc2cccc(-c3ccc(CN4CCS(=O)(=O)CC4)cc3)n2n1)C1CC1 [Compound 1, cyclopropanecarboxylic acid {5-[4-(1,1-dioxo-thiomorpholin-4-ylmethyl)-phenyl]-[1,2,4]triazolo[1,5-a]pyridin-2-yl}-amide]
50 mg q.d., Week 1
  DAS28(CRP) mean CFB (LOCF): −0.75
50 mg q.d., week 12
  DAS28(CRP) mean CFB (LOCF): −1.75
50 mg q.d., week 16
  DAS28(CRP) mean CFB (LOCF): −1.88
50 mg q.d., week 20
  DAS28(CRP) mean CFB (LOCF): −1.83
50 mg q.d., week 24
  DAS28(CRP) mean CFB (LOCF): −1.95
100 mg q.d., Week 1
  DAS28(CRP) mean CFB (LOCF): −0.87
100 mg q.d., week 8
  DAS28(CRP) mean CFB (LOCF): −1.89
100 mg q.d., week 12
  DAS28(CRP) mean CFB (LOCF): −2.04
100 mg q.d., week 16
  DAS28(CRP) mean CFB (LOCF): −2.39
100 mg q.d., week 20
  DAS28(CRP) mean CFB (LOCF): −2.48
100 mg q.d., week 24
  DAS28(CRP) mean CFB (LOCF): −2.61
200 mg q.d., Week 1
  DAS28(CRP) mean CFB (LOCF): −1.16
200 mg q.d., week 8
  DAS28(CRP) mean CFB (LOCF): −2.23
200 mg q.d., week 12
  DAS28(CRP) mean CFB (LOCF): −2.32
200 mg q.d., week 16
  DAS28(CRP) mean CFB (LOCF): −2.53
200 mg q.d., week 20
  DAS28(CRP) mean CFB (LOCF): −2.55
200 mg q.d., week 24
  DAS28(CRP) mean CFB (LOCF): −2.62
